# Test results reported in US9925202B2, “Treatment of lymphangioleiomyomatosis” (THE BRIGHAM AND WOMEN'S HOSPITAL, INC., priority 2013, dated 2018).
# For at least one compound, name, drawing or mass did not settle the structure.
# Experiments:
# LAM patients = conditions: randomized clinical trial, reference 7; cited from earlier work
# [1] = tested on: HeLa, U2OS and OVCAR5 cells; experiment: COX-2, phospho-S6 and PGE2 production in cells with intact TSC2 but mTORC1 activation; format: cell-based; conditions: 20 nM rapamycin, 24 hr
# [2] = tested on: Tsc2-deficient rat-uterus-derived ELT3 cells; experiment: COX-2, MAPK phosphorylation and prostaglandin levels in ELT3 cells (metabolomic screen, immunoblot, enzyme immunoassay); conditions: 20 nM rapamycin, 24 hr, conditioned media
# [3] = tested on: TSC2-deficient LAM patient-derived cells; conditions: 20 nM rapamycin, 24 hours; published expression array; cited from earlier work
# [4] = tested on: LAM patient-derived TSC2-deficient 621-101 cells; experiment: COX, phospho-protein and secreted prostaglandin levels in 621-101 cells (immunoblot, enzyme immunoassay); format: cell-based, human
# Procedure: Cell culture and reagents. ELT-3 cells (Eker rat uterine leiomyoma-derived) (22,23) and LAM patient-derived 621-101 cells were cultured in IIA complete medium. HeLa, U2OS and OVARC5 cells were cultured in DMEM supplemented with 10% FBS. 17-beta-estradiol (10 nM), rapamycin (20 nM, Biomols), NS398 (50 μM), aspirin (450 μM Sigma), and 15-epi-LXA4 (100 nM) were used as indicated.
# Immunoblotting and antibodies. Cells were lysed in m-PER buffer (PIERCE). Antibodies were used: COX-1, COX-2, phospho-MAPK (T202/Y204), phospho-S6 (S235/236), Cleaved caspase 3, cleaved PARP (CELL SIGNALING), tuberin and c-Myc (SANTA CRUZ), smooth muscle actin (BIOGENEX), and beta-actin (SIGMA).
# Quantification of prostaglandin levels. PGE2, 6-keto-PGF1α and creatinine were measured using enzyme immunoassay kits (Cayman Chemical). Levels of secreted prostaglandins were normalized to protein concentrations and expressed as pg/mg protein. Urinary levels of prostaglandins were normalized to creatinine levels and expressed as […].
# [5] = tested on: renal cystadenoma from TSC2+/- mice; experiment: COX-2 expression in spontaneously-arising renal cystadenoma; conditions: Tsc2+/- mice treated with rapamycin vs vehicle, immunohistochemical staining
compound,measurement,setting,value
CO[C@H]1C[C@@H]2CC[C@@H](C)[C@@](O)(O2)C(=O)C(=O)N2CCCC[C@H]2C(=O)O[C@H]([C@H](C)C[C@@H]2CC[C@@H](O)[C@H](OC)C2)CC(=O)[C@H](C)/C=C(\C)[C@@H](O)[C@@H](OC)C(=O)[C@H](C)C[C@H](C)/C=C/C=C/C=C/1C [rapamycin],lung function,LAM patients,stabilized
same,symptoms,LAM patients,improved
same,COX-2 expression,[1],did not affect
same,PGE2 production,[1],did not affect
same,phospho-S6,[1],reducing
same,PGE2 levels,[2],not affected
same,elevation of prostacyclin synthase (PTGIS) and COX-2 (PTGS2) in expression array,[3],insensitive
same,"Levels of PGE2, 6-keto-PGF1α, PGF2α and thromboxane B2","[4]; 20 nM rapamycin, 24 hr, conditioned media",insensitive
same,phosphorylation of the ribosomal protein p70S6 (S6),[4]; rapamycin 20 nM,suppressed
same,COX-2 expression,"[4]; rapamycin 20 nM, data not shown",did not affect
same,COX-2 expression in renal cystadenoma,[5],did not affect
